Measurements from publication PMC12153170.

Amino acid sequences for entries named in this document (tags omitted). A change or cut given only in a name is not applied to a line headed by its entry.
UniProt P31955: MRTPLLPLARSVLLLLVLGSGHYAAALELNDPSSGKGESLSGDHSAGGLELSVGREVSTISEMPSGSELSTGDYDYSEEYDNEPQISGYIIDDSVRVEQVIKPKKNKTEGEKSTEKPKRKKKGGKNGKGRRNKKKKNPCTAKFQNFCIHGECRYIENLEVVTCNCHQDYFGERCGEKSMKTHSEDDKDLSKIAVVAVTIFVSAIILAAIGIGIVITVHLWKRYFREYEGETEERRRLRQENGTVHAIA

Biological target: Amphiregulin (mouse (endogenous in infarcted heart tissue)) (UniProt P31955)
Assay: co-IP; endogenous proteins, infarcted heart tissue 7 days post-AMI (the legend of Fig. 5F says CMECs); which protein was precipitated is not told

B1: Forkhead Box Protein M1 (protein, UniProt O08696 1-760)
chain: MRTSPRRPLILKRRRLPLPVQNAPSETSEEEAKRSPAQPEPAPAQASQEVAESSSCKFPAGIKIINHPTTPNTQVVAIPSNADIQSIITALTAKGKESGTSGPNRFILISSGGPSSHPSQPQAHSSRDSKRAEVITETLGPKPAAKGVPVPKPPGAPPRQRQESYAGGEAAGCTLDNSLTNIQWLGKMSSDGLGPCSVKQELEEKENCHLEQNRVKVEEPSGVSTSWQDSVSERPPYSYMAMIQFAINSTERKRMTLKDIYTWIEDHFPYFKHIAKPGWKNSIRHNLSLHDMFVRETSANGKVSFWTIHPSANRHLTLDQVFKPLEPGSPQSPEHLESQQKRPNPELHRNVTIKTEIPLGARRKMKPLLPRVSSYLEPIQFPVNQSLVLQPSVKVPFRLAASLMSSELARHSKRVRIAPKVLLSSEGIAPLPATEPPKEEKPLLGGEGLLPLLPIQSIKEEEMQPEEDIAHLERPIKVESPPLEEWPSPCASLKEELSNSWEDSSCSPTPKPKKSYCGLKSPTRCVSEMLVTKRREKREVSRSRRKQHLQPPCLDEPDLFFPEDSSTFRPAVELLAESSEPAPHLSCPQEEGGPFKTPIKETLPVSSTPSKSVLSRDPESWRLTPPAKVGGLDFSPVRTPQGAFGLLPDSLGLMELNTTPLKSGPLFDSPRELLNSEPFDLASDPFGSPPPPHVEGPKPGSPELQIPSLSANRSLTEGLVLDTMNDSLSKILLDISFPGLEEDPLGPDNINWSQFIPELR
binding: binds

These are yes or no findings as the source states them, for the method shown. In cells and extracts the contact can be indirect. A result given as binding can be weak or reduced; the word gives no strength.
